Measured values taken from article PMC3796317.
No constants are given. Whether binding was seen depends on the method and setting. In cells and extracts the contact can be indirect. Some binding calls cover weakened binding; strength is not graded here. For some of these results: Tags and fused reporters may be left off the sequences shown. One block for each molecule: values may come before it.

The chains behind the UniProt entries cited, without tags or fusion partners.
UniProt P30052: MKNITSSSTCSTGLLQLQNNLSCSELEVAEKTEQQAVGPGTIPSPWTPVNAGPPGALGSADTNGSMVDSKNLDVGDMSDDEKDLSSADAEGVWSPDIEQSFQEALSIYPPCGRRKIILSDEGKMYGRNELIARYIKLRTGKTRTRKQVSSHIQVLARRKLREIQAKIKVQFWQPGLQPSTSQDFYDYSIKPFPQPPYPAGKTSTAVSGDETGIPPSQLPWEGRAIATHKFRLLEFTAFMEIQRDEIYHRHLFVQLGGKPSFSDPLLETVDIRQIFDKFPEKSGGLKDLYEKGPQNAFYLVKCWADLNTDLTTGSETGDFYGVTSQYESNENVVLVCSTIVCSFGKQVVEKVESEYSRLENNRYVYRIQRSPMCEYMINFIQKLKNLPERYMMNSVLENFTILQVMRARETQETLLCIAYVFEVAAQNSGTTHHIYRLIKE
UniProt Q9VF03: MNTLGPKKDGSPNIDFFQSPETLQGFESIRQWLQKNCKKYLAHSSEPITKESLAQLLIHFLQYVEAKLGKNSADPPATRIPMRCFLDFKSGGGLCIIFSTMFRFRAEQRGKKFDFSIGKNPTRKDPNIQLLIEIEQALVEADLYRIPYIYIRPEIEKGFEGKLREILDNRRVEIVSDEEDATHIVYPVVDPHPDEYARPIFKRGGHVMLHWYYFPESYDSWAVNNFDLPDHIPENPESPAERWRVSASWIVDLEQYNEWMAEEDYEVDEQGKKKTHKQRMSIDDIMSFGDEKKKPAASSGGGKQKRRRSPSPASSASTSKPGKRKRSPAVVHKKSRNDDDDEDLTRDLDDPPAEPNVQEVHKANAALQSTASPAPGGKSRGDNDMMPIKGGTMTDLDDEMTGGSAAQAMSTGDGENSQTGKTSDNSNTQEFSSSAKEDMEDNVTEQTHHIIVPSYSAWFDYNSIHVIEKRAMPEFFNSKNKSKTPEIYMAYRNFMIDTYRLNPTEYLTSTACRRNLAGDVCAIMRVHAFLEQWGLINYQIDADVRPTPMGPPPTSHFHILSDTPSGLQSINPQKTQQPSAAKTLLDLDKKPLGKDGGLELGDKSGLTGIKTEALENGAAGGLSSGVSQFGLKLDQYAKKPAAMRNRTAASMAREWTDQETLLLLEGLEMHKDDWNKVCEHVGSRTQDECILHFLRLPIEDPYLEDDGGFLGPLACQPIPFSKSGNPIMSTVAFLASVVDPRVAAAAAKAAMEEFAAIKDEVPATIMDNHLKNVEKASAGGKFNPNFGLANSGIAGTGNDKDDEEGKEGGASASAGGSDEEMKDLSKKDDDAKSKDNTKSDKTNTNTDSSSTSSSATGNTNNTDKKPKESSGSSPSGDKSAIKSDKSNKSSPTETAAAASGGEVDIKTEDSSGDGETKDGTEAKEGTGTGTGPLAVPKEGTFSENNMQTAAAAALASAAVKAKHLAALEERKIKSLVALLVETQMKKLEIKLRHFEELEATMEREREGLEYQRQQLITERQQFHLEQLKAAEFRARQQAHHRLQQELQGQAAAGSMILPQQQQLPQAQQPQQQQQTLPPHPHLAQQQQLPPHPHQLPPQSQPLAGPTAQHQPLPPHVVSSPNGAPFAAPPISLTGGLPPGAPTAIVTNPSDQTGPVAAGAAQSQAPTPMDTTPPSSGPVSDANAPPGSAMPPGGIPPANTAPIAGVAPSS
UniProt P25439: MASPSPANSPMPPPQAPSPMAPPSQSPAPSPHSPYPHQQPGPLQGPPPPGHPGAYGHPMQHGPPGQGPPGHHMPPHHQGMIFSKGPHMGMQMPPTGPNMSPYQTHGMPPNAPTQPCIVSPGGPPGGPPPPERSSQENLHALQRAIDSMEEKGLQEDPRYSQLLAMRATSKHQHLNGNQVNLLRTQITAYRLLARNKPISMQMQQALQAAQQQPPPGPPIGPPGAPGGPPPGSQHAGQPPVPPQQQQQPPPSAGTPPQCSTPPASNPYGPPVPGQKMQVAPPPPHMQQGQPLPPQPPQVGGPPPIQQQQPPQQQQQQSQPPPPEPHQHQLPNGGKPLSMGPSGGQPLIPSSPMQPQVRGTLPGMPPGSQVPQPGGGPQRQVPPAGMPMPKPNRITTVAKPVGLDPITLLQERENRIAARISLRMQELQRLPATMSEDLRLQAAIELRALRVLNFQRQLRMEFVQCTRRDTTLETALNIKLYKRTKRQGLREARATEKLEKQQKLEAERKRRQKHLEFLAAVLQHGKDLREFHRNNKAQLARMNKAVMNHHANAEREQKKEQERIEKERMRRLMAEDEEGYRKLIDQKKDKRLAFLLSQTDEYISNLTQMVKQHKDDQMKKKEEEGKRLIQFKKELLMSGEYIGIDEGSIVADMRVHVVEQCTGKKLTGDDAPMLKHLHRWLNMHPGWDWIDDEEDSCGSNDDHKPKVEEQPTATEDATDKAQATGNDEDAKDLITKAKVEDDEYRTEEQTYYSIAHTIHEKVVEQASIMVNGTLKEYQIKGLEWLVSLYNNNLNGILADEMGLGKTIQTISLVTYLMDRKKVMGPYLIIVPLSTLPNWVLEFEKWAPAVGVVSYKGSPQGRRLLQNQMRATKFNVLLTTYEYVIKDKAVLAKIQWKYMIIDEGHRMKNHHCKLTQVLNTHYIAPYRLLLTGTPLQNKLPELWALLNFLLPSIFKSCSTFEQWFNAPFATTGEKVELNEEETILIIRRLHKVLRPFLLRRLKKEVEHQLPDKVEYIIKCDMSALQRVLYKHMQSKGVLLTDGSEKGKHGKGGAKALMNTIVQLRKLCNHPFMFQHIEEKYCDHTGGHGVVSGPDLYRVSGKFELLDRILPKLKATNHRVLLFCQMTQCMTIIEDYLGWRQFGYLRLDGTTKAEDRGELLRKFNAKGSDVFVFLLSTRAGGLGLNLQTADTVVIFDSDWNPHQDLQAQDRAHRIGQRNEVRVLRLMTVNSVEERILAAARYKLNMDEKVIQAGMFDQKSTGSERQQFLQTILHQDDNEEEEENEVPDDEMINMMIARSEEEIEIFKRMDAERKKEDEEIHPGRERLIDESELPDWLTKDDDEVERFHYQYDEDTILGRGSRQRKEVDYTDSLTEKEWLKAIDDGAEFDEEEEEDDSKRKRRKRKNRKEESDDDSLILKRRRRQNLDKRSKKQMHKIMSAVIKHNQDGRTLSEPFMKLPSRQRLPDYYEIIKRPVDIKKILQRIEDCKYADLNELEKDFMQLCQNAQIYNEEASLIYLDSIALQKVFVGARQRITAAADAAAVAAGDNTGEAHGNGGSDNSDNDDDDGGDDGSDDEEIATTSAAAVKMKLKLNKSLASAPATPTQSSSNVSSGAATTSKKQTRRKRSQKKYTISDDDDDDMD
UniProt Q8IN94: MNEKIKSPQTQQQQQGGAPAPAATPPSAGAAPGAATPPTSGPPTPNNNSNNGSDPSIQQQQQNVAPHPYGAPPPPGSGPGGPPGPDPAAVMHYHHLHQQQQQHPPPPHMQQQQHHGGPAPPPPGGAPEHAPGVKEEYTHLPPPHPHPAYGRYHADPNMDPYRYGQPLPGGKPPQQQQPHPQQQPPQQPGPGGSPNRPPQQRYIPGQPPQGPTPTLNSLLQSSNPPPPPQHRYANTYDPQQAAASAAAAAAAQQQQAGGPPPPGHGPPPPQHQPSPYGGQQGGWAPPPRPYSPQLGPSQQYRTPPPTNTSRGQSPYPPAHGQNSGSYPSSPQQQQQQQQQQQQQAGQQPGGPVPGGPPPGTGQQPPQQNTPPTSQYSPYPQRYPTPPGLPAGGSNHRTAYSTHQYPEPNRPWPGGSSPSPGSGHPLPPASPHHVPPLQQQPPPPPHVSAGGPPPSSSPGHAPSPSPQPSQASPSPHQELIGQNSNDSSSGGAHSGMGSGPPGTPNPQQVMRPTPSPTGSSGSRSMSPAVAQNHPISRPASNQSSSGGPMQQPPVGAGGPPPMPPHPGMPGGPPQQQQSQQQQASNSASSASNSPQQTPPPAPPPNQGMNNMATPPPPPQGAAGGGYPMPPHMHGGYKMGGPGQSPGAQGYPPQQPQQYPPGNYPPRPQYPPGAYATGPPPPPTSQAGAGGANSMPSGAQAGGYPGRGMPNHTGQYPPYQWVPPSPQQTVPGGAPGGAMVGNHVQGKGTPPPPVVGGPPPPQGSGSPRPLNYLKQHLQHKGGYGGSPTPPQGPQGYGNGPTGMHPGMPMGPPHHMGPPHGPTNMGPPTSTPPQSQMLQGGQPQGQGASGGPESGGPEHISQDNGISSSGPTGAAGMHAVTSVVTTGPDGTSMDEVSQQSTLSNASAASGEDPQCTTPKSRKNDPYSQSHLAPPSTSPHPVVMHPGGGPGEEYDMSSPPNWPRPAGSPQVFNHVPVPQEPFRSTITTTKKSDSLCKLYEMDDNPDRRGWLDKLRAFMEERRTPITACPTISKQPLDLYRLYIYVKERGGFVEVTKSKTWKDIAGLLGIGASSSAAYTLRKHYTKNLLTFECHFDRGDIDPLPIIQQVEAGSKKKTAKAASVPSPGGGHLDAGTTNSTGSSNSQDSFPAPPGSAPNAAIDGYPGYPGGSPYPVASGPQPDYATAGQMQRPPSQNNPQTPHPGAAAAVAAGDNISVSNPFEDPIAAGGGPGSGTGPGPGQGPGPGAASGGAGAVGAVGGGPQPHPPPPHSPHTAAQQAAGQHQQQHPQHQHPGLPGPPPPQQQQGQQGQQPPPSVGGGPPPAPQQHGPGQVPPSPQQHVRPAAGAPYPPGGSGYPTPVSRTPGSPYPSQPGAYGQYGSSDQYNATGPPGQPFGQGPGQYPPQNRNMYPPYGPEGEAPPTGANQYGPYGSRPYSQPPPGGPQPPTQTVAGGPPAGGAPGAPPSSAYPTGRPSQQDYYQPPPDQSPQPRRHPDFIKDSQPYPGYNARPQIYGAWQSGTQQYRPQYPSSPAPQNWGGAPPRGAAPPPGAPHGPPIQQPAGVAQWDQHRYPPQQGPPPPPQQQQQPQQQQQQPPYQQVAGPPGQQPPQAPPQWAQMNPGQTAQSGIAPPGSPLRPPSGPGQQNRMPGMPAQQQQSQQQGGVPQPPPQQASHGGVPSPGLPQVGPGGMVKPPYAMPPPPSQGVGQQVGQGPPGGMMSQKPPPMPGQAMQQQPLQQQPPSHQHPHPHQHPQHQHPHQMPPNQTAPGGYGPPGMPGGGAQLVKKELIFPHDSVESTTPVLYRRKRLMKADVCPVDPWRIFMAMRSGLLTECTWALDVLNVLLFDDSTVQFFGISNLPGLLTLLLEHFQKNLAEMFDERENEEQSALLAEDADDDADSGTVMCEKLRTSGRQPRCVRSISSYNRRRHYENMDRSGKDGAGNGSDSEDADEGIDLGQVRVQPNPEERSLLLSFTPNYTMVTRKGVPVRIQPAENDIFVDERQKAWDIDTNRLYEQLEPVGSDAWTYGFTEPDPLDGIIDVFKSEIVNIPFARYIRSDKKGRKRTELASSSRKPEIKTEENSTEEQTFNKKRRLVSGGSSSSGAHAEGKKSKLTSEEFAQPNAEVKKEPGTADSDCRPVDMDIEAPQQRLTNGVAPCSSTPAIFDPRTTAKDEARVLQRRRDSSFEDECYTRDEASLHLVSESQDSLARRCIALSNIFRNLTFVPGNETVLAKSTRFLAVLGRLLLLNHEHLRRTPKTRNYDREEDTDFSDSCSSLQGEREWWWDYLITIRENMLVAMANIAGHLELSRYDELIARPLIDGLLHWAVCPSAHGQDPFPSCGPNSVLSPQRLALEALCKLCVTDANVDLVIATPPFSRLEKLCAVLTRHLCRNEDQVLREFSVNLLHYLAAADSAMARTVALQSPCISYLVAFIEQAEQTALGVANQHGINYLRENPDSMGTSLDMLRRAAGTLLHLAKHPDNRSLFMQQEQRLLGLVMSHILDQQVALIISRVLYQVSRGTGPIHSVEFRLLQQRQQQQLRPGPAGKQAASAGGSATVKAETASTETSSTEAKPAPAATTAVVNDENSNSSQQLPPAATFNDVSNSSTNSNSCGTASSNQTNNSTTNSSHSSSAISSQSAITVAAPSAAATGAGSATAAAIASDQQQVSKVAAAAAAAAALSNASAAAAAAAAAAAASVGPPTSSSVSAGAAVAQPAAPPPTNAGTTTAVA

Experiments:
[1] = molecular target: HA-tagged Sd (HA–Sd) (Drosophila) (UniProt P30052); experiment: co-IP; S2 cells; Sd with Brm, seen in one direction; the legend does not tell whether Brm was coexpressed or which protein was precipitated
[2] = molecular target: Mor, coexpressed with Sd in S2 cells (Drosophila) (UniProt Q9VF03); experiment: co-IP; tagged proteins coexpressed in S2 cells (pUAST vectors with ubiquitin-Gal4), immunoprecipitation with anti-tag antibodies and Western blot
[3] = molecular target: Brahma (Brm), endogenous (Drosophila (endogenous in S2 cells)) (UniProt P25439); experiment: co-IP; S2 cells transfected with HA–Sd; HA–Sd coimmunoprecipitated with endogenous Brm
[4] = molecular target: HA-tagged Sd (HA–Sd) (Drosophila) (UniProt P30052); experiment: co-IP; tagged proteins coexpressed in S2 cells (pUAST vectors with ubiquitin-Gal4), immunoprecipitation with anti-tag antibodies and Western blot
[5] = molecular target: T1, Myc-tagged Yki (Myc–Yki) (Drosophila) (UniProt Q45VV3); experiment: as above
T1 sequence: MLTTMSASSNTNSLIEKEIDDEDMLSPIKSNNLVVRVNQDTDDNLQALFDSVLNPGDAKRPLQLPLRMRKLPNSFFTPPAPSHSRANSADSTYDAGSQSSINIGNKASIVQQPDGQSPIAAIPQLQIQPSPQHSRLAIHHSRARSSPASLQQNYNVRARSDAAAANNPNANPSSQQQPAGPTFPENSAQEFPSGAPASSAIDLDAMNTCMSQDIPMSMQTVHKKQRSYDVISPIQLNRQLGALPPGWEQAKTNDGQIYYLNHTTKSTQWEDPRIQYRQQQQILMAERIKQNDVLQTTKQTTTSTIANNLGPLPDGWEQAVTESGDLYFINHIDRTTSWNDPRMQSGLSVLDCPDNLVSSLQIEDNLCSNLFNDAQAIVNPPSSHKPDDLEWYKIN

[6] = molecular target: V5-tagged Brm (Brm–V5) (Drosophila) (UniProt P25439); experiment: as above

binding [1]: binds
Molecule: Brm, as in the co-IP with Sd of Figure 4—figure supplement 1A (from UniProt P25439 1-1638)

binding [2]: binds
binding [3]: binds
Molecule: HA-tagged Sd (HA–Sd) (from UniProt P30052 1-440)

binding [4]: binds
Molecule: Mor, coexpressed with Sd in S2 cells (from UniProt Q9VF03 1-1209)

binding [4]: binds
Molecule: Osa, coexpressed with Sd in S2 cells (from UniProt Q8IN94 1-2716)

binding [5]: binds
Molecule: V5-tagged Brm (Brm–V5) (from UniProt P25439 1-1638)

binding [6]: binds
B1: Myc-tagged Yki (Myc–Yki) (protein, UniProt Q45VV3 1-395)
chain: T1 sequence
